The results in this text go back to PMC5996148.

“And” between values parts separate entries of the source, which are not always exact repeats. Identical values can stand only once. The list shows a part of the results.

What all share (test): protein microarray (ProtoArray v5.0), streptavidin-Alexa Fluor 647
Common to all, as to details: 3'-biotin; 20 mM Tris (pH 7.5), 5 mM MgCl2, 100 mM KCl, 0.1% Tween-20, A/T-rich and random oligonucleotide blockers; temperature not stated; high values mean tight binding

Test [1] deals with Importin-4 (human).
Test [2] relates to Inhibitor of growth protein 4 (human).
The test system of test [3] is Inorganic pyrophosphatase 2, mitochondrial (human).
Test [4] relates to Insulin-degrading enzyme (human).
The subject of test [5] is Integrin beta-7 (human).
Test [6] relates to Interferon alpha-1/13 (human).
The subject of test [7] is Interferon alpha-14 (human).
Test [8] relates to Interferon alpha-4 (human).
Test [9] deals with Interferon-induced guanylate-binding protein 2 (human).
Test [10] concerns Interleukin-1 family member 10 (human).

On to “GGGAGGCTGAGGCAGG [G4-1 biotinylated (PQS2)]”, for which the binding signal in [1] is -0.335 z-score; in [2], -0.36 z-score; in test [3] it was -0.309 z-score; in test [4], -0.296 z-score; in test [5], -0.326 z-score; in test [6] it was -0.344 z-score. The binding signal is -0.308 z-score in test [7]; -0.337 z-score and -0.357 z-score in [8]; -0.359 z-score in test [9]; -0.305 z-score in test [10].
